Measured values from patent publication US20150368715A1, “DIAGNOSTIC AND TREATMENT OF CHRONIC HEART FAILURE” (Institut National de la Sante et de la Recherche Medicale …, priority 2010, published 2015).
“Also recorded” adds a separate entry of the source. At least one structure is not confirmed: it was looked up by name or label, or the drawing left a doubt.

Assays:
Format in all cases: cell-based, rat
[1] = system: ApoO+ H9c2 cardiac myoblasts; test: Mitochondrial membrane potential by FACS (JC-1); details: 100 μM palmitate, FIG. 3J, K
caspase 3 = test: Caspase 3 activity monitoring in cardiac myoblasts
Protocol: Palmitate preparation and caspase 3 activity measurement were performed as previously described (Hickson-Bick, Buja et al. 2000; Hirota, Otabe et al. 2006).

H9c2 cardiac myoblasts = test: Intracellular lipid levels (diglycerides, triglycerides, ceramides) by gas chromatography
[2] = palmitate treatment of cardiac myoblasts expressing ApoO, compared to control cells

CCCCCCCCCCCCCCCC(=O)O [palmitate]
mitochondrial transmembrane potential [1]: further magnified
caspase 3 activity (caspase 3; ApoO+ H9c2 cardiac myoblasts, increased amounts of palmitate, FIG. 4H): strong increase of caspase 3 activity; also recorded: increased
caspase 3 activity (caspase 3; control (normal) H9c2 cardiac myoblasts, increased amounts of palmitate, FIG. 4H): no significant effects in control cell excepted for high palmitate concentration; also recorded: moderately increase
ceramides levels (H9c2 cardiac myoblasts; palmitate treatment of cardiac myoblasts expressing ApoO): increased
diglycerides level (H9c2 cardiac myoblasts; [2]): dramatic intracellular accumulation of diglycerides
triglyceride levels (H9c2 cardiac myoblasts; [2]): did not have a significant effect

CCCCCCCC/C=C\CCCCCCCC(=O)O [oleate]
caspase 3 activity (caspase 3; ApoO+ cells incubated with palmitate, with or without added agent, FIG. 5A, 5L, 6E, 6F): reversed
diglycerides level (H9c2 cardiac myoblasts; ApoO+ cells, palmitate plus oleate addition, FIG. 5B): reversed
triglycerides content (H9c2 cardiac myoblasts; palmitate plus oleate addition, FIG. 5C): slightly lowered
